Measurements from the supplement of paper PMC12067093, “Discovery and optimisation of a covalent ligand for TRIM25 and its application to targeted protein ubiquitination” (Chemical Science, 2025).
The list shows a part of the results.

The chains behind the UniProt entries cited, without tags or fusion partners. Where a name states a change or a piece, a line headed by the entry shows the natural chain unless it says otherwise.
UniProt P26639: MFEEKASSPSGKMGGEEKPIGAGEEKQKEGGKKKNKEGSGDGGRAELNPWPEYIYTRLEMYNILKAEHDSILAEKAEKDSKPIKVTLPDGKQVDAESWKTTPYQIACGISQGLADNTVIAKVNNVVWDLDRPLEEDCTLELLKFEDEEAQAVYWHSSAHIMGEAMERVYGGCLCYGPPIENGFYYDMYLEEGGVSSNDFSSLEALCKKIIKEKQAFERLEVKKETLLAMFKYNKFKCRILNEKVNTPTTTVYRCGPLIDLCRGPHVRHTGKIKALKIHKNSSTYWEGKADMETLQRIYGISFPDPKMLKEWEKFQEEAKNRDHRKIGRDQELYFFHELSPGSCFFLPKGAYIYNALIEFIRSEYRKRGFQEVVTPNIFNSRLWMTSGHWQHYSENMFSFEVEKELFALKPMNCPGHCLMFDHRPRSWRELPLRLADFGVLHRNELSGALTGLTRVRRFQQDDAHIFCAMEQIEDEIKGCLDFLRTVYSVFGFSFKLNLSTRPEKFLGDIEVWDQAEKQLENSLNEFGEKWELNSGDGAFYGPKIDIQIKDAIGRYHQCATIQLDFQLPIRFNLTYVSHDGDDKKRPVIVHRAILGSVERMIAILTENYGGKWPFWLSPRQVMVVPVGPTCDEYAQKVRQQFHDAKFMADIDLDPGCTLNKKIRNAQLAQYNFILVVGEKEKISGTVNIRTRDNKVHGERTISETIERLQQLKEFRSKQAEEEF
UniProt Q86TI0: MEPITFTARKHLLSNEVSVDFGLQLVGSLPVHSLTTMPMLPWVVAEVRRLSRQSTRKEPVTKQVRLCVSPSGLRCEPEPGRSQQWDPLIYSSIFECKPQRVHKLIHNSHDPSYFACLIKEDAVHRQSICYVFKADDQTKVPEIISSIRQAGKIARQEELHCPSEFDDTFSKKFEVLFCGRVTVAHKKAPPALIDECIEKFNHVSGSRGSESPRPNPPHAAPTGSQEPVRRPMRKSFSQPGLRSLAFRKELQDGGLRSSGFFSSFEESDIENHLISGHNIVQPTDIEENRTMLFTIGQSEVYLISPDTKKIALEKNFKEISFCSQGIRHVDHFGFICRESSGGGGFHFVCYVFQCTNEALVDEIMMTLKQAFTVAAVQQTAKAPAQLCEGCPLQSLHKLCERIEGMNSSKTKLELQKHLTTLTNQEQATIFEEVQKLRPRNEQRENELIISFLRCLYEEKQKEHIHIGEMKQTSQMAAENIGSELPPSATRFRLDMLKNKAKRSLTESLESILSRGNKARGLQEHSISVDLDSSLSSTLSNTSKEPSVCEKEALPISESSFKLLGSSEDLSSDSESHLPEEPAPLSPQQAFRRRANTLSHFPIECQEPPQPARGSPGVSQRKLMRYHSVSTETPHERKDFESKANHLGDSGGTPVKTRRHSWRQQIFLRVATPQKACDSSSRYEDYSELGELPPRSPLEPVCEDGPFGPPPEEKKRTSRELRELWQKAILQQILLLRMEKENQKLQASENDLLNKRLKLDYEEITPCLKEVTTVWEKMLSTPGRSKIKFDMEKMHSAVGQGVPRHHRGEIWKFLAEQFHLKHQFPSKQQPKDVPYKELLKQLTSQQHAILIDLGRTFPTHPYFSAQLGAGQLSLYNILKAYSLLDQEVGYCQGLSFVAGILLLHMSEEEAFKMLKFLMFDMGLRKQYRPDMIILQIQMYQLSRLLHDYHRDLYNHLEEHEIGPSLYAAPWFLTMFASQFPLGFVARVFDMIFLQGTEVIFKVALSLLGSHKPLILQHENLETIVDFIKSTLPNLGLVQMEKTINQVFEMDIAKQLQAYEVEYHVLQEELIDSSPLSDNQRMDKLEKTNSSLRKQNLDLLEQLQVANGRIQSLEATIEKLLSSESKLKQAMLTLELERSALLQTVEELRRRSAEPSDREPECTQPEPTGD
UniProt Q9BW92: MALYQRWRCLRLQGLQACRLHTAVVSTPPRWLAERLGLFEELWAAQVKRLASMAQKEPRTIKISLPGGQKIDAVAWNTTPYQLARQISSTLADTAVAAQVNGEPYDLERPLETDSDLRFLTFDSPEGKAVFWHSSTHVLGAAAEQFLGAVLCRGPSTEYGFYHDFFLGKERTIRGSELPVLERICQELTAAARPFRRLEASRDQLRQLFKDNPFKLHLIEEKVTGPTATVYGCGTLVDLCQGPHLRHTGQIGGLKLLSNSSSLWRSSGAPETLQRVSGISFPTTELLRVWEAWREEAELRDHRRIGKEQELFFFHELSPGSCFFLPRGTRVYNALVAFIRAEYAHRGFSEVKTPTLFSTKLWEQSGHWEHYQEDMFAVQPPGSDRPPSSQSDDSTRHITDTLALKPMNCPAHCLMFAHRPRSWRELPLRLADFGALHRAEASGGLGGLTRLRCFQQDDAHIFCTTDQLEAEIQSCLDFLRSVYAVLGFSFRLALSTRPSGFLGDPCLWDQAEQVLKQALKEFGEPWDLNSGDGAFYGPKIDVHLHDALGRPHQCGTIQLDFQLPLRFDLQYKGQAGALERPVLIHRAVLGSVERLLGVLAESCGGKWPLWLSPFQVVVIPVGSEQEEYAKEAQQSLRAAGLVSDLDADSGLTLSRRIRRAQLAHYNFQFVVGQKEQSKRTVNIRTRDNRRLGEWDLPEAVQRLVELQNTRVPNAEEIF
UniProt Q6P1N9: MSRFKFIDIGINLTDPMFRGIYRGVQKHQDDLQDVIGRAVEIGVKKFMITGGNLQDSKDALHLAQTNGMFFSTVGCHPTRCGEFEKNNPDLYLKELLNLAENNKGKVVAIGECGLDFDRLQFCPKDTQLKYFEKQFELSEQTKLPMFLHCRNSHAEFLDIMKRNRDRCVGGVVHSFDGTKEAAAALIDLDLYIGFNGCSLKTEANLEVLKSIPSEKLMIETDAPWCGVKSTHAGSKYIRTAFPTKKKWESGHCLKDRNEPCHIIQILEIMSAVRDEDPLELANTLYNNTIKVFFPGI
UniProt Q9NVG8: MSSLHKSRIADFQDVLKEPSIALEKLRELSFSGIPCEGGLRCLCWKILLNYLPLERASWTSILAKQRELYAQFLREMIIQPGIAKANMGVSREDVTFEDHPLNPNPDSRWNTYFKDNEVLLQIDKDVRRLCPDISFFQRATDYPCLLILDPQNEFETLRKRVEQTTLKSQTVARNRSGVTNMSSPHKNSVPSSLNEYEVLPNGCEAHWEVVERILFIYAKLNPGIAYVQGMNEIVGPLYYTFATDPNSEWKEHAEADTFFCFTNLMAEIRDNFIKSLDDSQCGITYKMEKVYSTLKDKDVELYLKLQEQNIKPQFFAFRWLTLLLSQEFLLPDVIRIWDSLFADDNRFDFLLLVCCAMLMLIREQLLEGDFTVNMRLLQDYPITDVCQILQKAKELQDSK
UniProt Q96BN2: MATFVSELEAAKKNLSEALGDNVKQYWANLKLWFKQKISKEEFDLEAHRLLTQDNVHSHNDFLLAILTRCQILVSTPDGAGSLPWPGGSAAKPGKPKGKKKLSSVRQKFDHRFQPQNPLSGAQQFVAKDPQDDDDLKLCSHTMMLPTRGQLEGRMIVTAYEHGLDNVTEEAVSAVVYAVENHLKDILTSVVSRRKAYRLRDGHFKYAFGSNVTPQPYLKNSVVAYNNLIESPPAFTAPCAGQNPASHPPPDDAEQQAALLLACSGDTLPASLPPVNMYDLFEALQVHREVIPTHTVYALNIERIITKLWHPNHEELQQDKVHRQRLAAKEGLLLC
UniProt Q15750: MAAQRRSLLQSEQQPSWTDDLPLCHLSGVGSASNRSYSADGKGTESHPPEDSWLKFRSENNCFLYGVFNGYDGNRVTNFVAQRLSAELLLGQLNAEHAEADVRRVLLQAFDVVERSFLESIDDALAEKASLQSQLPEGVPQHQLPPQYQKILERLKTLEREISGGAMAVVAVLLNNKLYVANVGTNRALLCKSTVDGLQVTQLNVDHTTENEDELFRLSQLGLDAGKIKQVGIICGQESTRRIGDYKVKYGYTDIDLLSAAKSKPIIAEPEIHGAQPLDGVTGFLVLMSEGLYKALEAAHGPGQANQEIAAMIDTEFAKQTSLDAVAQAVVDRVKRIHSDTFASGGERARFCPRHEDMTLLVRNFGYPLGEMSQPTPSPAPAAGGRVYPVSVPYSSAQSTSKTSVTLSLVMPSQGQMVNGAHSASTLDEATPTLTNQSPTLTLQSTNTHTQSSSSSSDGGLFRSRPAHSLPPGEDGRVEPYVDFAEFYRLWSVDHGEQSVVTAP
UniProt Q9BZK7: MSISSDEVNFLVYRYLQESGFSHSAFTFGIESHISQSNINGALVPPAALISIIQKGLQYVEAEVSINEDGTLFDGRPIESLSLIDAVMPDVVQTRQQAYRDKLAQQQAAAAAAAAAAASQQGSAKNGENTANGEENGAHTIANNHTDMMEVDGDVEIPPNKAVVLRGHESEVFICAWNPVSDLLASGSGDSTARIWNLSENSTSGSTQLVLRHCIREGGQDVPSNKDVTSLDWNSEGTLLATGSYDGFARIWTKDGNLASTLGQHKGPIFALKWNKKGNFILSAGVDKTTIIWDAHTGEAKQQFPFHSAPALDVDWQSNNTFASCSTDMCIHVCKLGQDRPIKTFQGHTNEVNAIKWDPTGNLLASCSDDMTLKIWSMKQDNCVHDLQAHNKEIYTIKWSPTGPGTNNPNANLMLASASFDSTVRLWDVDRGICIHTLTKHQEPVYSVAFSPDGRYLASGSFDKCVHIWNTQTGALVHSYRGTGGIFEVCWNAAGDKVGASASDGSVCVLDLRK
UniProt Q92844: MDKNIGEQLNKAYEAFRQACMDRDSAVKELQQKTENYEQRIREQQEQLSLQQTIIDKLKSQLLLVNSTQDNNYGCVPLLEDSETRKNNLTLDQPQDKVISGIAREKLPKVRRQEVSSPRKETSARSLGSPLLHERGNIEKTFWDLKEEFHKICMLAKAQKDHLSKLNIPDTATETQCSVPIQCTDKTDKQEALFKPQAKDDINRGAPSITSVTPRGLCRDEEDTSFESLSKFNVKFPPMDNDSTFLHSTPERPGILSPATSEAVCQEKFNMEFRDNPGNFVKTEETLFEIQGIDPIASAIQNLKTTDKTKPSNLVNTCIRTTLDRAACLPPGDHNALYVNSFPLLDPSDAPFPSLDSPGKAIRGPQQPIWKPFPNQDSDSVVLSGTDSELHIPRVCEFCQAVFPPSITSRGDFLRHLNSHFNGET
UniProt Q9Y4C2: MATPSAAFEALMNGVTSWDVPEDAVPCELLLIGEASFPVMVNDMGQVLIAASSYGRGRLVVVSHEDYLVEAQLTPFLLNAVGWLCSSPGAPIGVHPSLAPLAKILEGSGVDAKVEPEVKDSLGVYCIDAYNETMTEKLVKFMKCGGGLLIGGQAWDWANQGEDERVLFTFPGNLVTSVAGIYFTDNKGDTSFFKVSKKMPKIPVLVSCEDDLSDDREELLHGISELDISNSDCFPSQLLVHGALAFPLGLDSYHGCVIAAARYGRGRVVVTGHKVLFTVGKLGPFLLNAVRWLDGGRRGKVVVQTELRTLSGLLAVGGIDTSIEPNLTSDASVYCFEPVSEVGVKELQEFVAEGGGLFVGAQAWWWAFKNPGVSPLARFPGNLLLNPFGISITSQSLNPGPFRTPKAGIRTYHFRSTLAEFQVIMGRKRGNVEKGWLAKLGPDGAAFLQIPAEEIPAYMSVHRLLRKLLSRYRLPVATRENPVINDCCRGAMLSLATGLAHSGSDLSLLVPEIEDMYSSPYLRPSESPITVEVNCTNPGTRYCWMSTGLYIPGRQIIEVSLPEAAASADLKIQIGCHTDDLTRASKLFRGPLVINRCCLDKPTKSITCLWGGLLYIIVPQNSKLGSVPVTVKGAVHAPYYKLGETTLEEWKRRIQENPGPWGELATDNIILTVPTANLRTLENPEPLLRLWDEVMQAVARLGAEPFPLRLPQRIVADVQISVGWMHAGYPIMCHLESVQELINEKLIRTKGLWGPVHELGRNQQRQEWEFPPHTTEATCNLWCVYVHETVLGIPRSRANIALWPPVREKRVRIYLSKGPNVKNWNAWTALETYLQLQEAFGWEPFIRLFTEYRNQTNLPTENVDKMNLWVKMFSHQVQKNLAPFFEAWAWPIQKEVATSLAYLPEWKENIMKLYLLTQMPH
UniProt O43760: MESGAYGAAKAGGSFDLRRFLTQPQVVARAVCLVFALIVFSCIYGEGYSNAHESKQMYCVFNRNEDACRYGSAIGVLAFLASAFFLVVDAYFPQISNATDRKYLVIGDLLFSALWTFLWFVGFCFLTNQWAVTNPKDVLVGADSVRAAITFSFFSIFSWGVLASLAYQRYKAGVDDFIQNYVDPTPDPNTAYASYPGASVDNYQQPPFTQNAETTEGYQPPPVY
UniProt Q15544, whole entry: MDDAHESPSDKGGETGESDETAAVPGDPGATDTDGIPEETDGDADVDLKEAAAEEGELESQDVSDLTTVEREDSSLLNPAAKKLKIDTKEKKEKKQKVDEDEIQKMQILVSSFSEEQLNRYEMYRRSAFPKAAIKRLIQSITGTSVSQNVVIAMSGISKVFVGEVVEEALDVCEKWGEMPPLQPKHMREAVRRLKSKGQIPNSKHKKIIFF

Compound: CC1Cc2ccccc2N1C(=O)C1CCCN(C1)C(=O)CCl (mixture of isomers) [TRIM25 ligand 11 (diastereomer mixture)]
Assay: probe-labelled cysteine peptide fold change vs DMSO (competition) (log2 fold change); higher = less target engagement (more negative = stronger competition)
Details: THP-1, incubation time: 4 h
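Further: competitive chemoproteomic profiling in live THP-1 cells with an iodoacetamide desthiobiotin (IA-DTB) probe, comparing probe-labelled peptide intensities in compound-treated cells against DMSO-treated controls.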

Row | Target | probe-labelled cysteine peptide fold change (10 µM) | probe-labelled cysteine peptide fold change (50 µM)
1 | TBP_P20226_221_MVCTGAK (UniProt P20226) | -0.0387 | -0.0487
2 | TATDN3_Q17R31_66_YNGFVLPCLGVHPVQGLPPEDQR (UniProt Q17R31) | -0.149 | -0.0921
3 | TARS_P26639_467_RFQQDDAHIFCAMEQIEDEIK (UniProt P26639) | 0.12 | 0.136
4 | TAOK2_Q9UL54_1103_ALQGCGAVGDR (UniProt Q9UL54) | 0.0711 | 0.0811
5 | TBC1D1_Q86TI0_604_RANTLSHFPIECQEPPQPAR (UniProt Q86TI0) | 0.0159 | -0.042
6 | TAP1_Q03518_722_KPCVLILDDATSALDANSQLQVEQLLYESPER (UniProt Q03518) | -0.0352 | 0.0123
7 | TARS_P26639_413+417_ELFALKPMNCPGHCLMFDHRPR (UniProt P26639) | -0.0314 | 0.0127
8 | TARS2_Q9BW92_322_IGKEQELFFFHELSPGSCFFLPR (UniProt Q9BW92) | -0.452 | -0.018
9 | TATDN1_Q6P1N9_113_VVAIGECGLDFDRLQFCPK (UniProt Q6P1N9) | -0.217 | -0.0464
10 | TBL3_Q12788_129_AIHTAPVATMAFDPTSTLLATGGCDGAVR (UniProt Q12788) | 0.199 | 0.256
11 | TBC1D13_Q9NVG8_261_EHAEADTFFCFTNLMAEIRDNFIK (UniProt Q9NVG8) | -0.0165 | -0.0773
12 | TACC3_Q9Y6A5_242_HGGVCAPAAVATSPPGAIPK (UniProt Q9Y6A5) | -0.0737 | -0.214
13 | TCEA2_Q15560_173_LSAQIEECIFR (UniProt Q15560) | -0.154 | -0.172
14 | TBC1D13_Q9NVG8_145_ATDYPCLLILDPQNEFETLR (UniProt Q9NVG8) | -0.000134 | 0.36
15 | TAF5_Q15542_632_IFAGHLADVNCTR (UniProt Q15542) | 0.247 | 0.266
16 | SYK_P43405_597_MGCPAGCPR (UniProt P43405) | -0.0238 | -0.0779
17 | TBK1_Q9UHD2_292_CWGFDQFFAETSDILHR (UniProt Q9UHD2) | 0.223 | 0.00117
18 | TADA1_Q96BN2_139_LCSHTMMLPTR (UniProt Q96BN2) | -0.0207 | -0.197
19 | TATDN2_Q93075_563_EDLVWGAFGCHPHFAR (UniProt Q93075) | -0.0451 | 0.0648

Row | Target | probe-labelled cysteine peptide fold change (10 µM) | probe-labelled cysteine peptide fold change (50 µM)
20 | TBC1D1_Q86TI0_604_ANTLSHFPIECQEPPQPAR (UniProt Q86TI0) | 0.0979 | -0.0971
21 | TBC1D24_Q9ULP9_404_EVCGAYLSTDWSER (UniProt Q9ULP9) | 0.0351 | 0.172
22 | TBC1D13_Q9NVG8_261_EHAEADTFFCFTNLMAEIR (UniProt Q9NVG8) | 0.243 | 0.000832
23 | TAB1_Q15750_235_QVGIICGQESTR (UniProt Q15750) | 0.0559 | 0.136
24 | TBL1XR1_Q9BZK7_367_WDPTGNLLASCSDDMTLK (UniProt Q9BZK7) | 0.16 | 0.072
25 | TANK_Q92844_183_LNIPDTATETQCSVPIQCTDK (UniProt Q92844) | 0.00112 | -0.307
26 | TBC1D1_Q86TI0_676_ACDSSSR (UniProt Q86TI0) | 0.525 | 0.352
27 | TATDN1_Q6P1N9_113+123_VVAIGECGLDFDRLQFCPK (UniProt Q6P1N9) | -0.314 | -0.198
28 | TBC1D5_Q92609_219_QGMHELLAPIVFVLHCDHQAFLHASESAQPSEEMK (UniProt Q92609) | 0.192 | -0.161
29 | TCAF1_Q9Y4C2_576_IQIGCHTDDLTR (UniProt Q9Y4C2) | 0.0608 | 0.143
30 | TBC1D5_Q92609_192_ILTDVLFCYAR (UniProt Q92609) | 0.0186 | 0.0737
31 | TBC1D22B_Q9NU19_144_NSSDTCLR (UniProt Q9NU19) | -0.129 | -0.171
32 | TBC1D2B_Q9UPU7_38_LCGYLQK (UniProt Q9UPU7) | -0.13 | -0.177
33 | SYNGR2_O43760_59_QMYCVFNR (UniProt O43760) | -0.0267 | -0.0129
34 | SYK_P43405_89_THASPADLCHYHSQESDGLVCLLK (UniProt P43405) | -0.0181 | -0.111
35 | SYVN1_Q86TM6_326+329_QQTCPTCR (UniProt Q86TM6) | 0.113 | 0.0121
36 | TAF11_Q15544_173_VFVGEVVEEALDVCEK (UniProt Q15544) | 0.0419 | 0.284
37 | TBC1D1_Q86TI0_322_EISFCSQGIR (UniProt Q86TI0) | -0.00609 | -0.0164
38 | TANK_Q92844_218_GLCRDEEDTSFESLSK (UniProt Q92844) | -0.0763 | -0.0844
